# Measurements: US20190300585A1
# Results are given in words; binding and its absence hold for the method and conditions named. Some binding calls cover weakened binding; strength is not graded here.
# Biological target: Neuropilin-1 on CD4+ T cells contained in murine splenocytes (mouse) (UniProt P97333)
# Experiment: flow cytometry, phage clone on murine splenocytes, biotinylated anti-phage antibody and fluorescent streptavidin
row,Binder,binding
1,VSYKAIR [phage clone FL4 (displayed peptide VSYKAIR)],binds
2,GGSKPVR [phage clone FL8 (displayed peptide GGSKPVR)],binds
